# PubChem BioAssay AID743121 | NCATS, 2013
# Test: 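Partners whose loss is lethal together with topoisomerase I blockade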 (primary screen)
# Cells: MDA-MB-231 cells, a human breast cancer line
# Reagent: single siRNA against human genes, 20 nM siRNA (0.8 pmol per well)
# Duration: 120 h (drug added 48 h after transfection, read 72 h later)
# Challenge: camptothecin 20 nM (about EC30) for 72 h; vehicle 0.1% DMSO in parallel plates
# Detection: 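CellTiter-Glo ATP signal, scaled to control siRNA as percent viability; sensitisation given as log2 of untreated divided by camptothecin-treated viability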
# Direction: log2 vehicle/camptothecin viability: higher = stronger sensitisation to camptothecin; viability with camptothecin and viability without drug: higher = more viable cells
# Rule for the call: 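Active genes have an RSA gene-level p-value below 0.001, computed from the ratios of their separate siRNAs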
# Here is one part, drawn at random, of about 26,000 reagents tested. 167 of all reagents (0.63%) were called active. 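Calls are per gene from RSA p-values that are not deposited; an individual active-marked siRNA can sensitise only weakly.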 A number with no mark means an inactive call. The numbers tell different reagents against one gene apart. Reagent sequences are not shown.
target,siRNA no.,log2 vehicle/camptothecin viability,viability with camptothecin (% of control),viability without drug (% of control)
ANXA2R (GeneID 389289),1,-0.0568,81.9,78.8
ANXA2R (GeneID 389289),2,0.162,9.64,10.8
KCNIP3 (GeneID 30818),1,-0.324,85.9,68.7
KCNIP3 (GeneID 30818),2,-0.314,41.8,33.7
KCNIP3 (GeneID 30818),3,0.35,61.8,78.7
KCNIP3 (GeneID 30818),4,0.0206,84.2,85.4
PSMD14 (GeneID 10213),1,-0.116,16,14.8
PSMD14 (GeneID 10213),2,-0.714,20.3,12.4
PSMD14 (GeneID 10213),3,0.523,9.5,13.6
RABL3 (GeneID 285282),1,0.659,41.4,65.4
RABL3 (GeneID 285282),2,0.169,93.3,105
RABL3 (GeneID 285282),3,-0.207,114,98.6
RABL3 (GeneID 285282),4,-0.0339,75.2,73.4
ALKBH3 (GeneID 221120),1,-0.507,79.9,56.2
ALKBH3 (GeneID 221120),2,-0.125,77.4,71
ALKBH3 (GeneID 221120),3,-0.0869,98.6,92.8
ALKBH3 (GeneID 221120),4,-0.539,72.5,49.9
VWF (GeneID 7450),1,-0.3,120,97.2
VWF (GeneID 7450),2,-0.271,89.5,74.2
VWF (GeneID 7450),3,0.00342,85.6,85.8
VWF (GeneID 7450),4,0.331,41.8,52.6
PAQR3 (GeneID 152559),1,-0.286,102,83.8
PAQR3 (GeneID 152559),2,-0.125,70.1,64.3
PAQR3 (GeneID 152559),3,-0.0215,108,107
PAQR3 (GeneID 152559),4,-0.304,42.8,34.7
PLA2G10 (GeneID 8399),1,0.0178,97.3,98.5
PLA2G10 (GeneID 8399),2,0.147,61.8,68.4
PLA2G10 (GeneID 8399),3,-0.209,64.9,56.2
